Results from PMC9254885.
Substitutions are numbered along the chain they refer to. No constants are given. Whether binding was seen depends on the method and setting. Binding seen in cells or lysates may run through a third protein. Some results given as binding are weak or reduced against the parent protein; the word gives no strength. Tags and fused reporters may be left off the sequences shown.

Key:
Assay in all cases: co-IP; FLAG-tagged wild-type, D177N or Y891F OGA overexpressed in HeLa cells; co-IP with anti-CPS1 and anti-FLAG antibody; CPS1 endogenous
[1] = target: T1, FLAG-tagged OGA Y891F mutant (UniProt O60502)
T1 sequence: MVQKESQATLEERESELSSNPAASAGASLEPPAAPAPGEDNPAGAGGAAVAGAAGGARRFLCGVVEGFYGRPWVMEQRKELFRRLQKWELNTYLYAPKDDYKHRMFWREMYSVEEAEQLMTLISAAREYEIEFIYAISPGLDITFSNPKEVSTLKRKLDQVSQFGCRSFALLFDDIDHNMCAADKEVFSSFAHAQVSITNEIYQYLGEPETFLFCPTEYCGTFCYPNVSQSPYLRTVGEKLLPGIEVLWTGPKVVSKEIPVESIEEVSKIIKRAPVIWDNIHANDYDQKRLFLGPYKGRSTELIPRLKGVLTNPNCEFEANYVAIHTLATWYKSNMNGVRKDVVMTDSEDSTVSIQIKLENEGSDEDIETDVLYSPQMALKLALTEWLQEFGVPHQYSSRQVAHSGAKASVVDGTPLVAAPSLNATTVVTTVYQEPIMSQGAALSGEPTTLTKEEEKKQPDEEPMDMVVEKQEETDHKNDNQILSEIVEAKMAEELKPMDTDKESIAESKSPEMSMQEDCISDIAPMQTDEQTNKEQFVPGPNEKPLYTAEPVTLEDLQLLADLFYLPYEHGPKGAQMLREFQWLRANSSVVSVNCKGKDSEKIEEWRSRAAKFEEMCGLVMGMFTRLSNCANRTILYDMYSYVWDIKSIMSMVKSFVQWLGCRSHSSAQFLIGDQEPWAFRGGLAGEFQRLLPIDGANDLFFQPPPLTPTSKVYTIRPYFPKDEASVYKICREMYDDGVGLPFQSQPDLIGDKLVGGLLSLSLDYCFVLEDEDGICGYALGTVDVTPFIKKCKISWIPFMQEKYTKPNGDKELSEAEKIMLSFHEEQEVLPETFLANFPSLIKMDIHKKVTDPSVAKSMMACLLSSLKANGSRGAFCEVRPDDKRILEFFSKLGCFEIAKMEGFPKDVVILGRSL

[2] = target: T2, FLAG-tagged OGA D177N mutant (UniProt O60502)
T2 sequence: T1 sequence with D177N, F891Y

[3] = target: T3, FLAG-tagged wild-type OGA (O-GlcNAcase) (UniProt O60502)
T3 sequence: T1 sequence with F891Y

binding [1]: binds
binding [2]: binds
binding [3]: binds
B1: endogenous CPS1 (HeLa cells) (enzyme, UniProt P31327 39-1500)
chain: LSVKAQTAHIVLEDGTKMKGYSFGHPSSVAGEVVFNTGLGGYPEAITDPAYKGQILTMANPIIGNGGAPDTTALDELGLSKYLESNGIKVSGLLVLDYSKDYNHWLATKSLGQWLQEEKVPAIYGVDTRMLTKIIRDKGTMLGKIEFEGQPVDFVDPNKQNLIAEVSTKDVKVYGKGNPTKVVAVDCGIKNNVIRLLVKRGAEVHLVPWNHDFTKMEYDGILIAGGPGNPALAEPLIQNVRKILESDRKEPLFGISTGNLITGLAAGAKTYKMSMANRGQNQPVLNITNKQAFITAQNHGYALDNTLPAGWKPLFVNVNDQTNEGIMHESKPFFAVQFHPEVTPGPIDTEYLFDSFFSLIKKGKATTITSVLPKPALVASRVEVSKVLILGSGGLSIGQAGEFDYSGSQAVKAMKEENVKTVLMNPNIASVQTNEVGLKQADTVYFLPITPQFVTEVIKAEQPDGLILGMGGQTALNCGVELFKRGVLKEYGVKVLGTSVESIMATEDRQLFSDKLNEINEKIAPSFAVESIEDALKAADTIGYPVMIRSAYALGGLGSGICPNRETLMDLSTKAFAMTNQILVEKSVTGWKEIEYEVVRDADDNCVTVCNMENVDAMGVHTGDSVVVAPAQTLSNAEFQMLRRTSINVVRHLGIVGECNIQFALHPTSMEYCIIEVNARLSRSSALASKATGYPLAFIAAKIALGIPLPEIKNVVSGKTSACFEPSLDYMVTKIPRWDLDRFHGTSSRIGSSMKSVGEVMAIGRTFEESFQKALRMCHPSIEGFTPRLPMNKEWPSNLDLRKELSEPSSTRIYAIAKAIDDNMSLDEIEKLTYIDKWFLYKMRDILNMEKTLKGLNSESMTEETLKRAKEIGFSDKQISKCLGLTEAQTRELRLKKNIHPWVKQIDTLAAEYPSVTNYLYVTYNGQEHDVNFDDHGMMVLGCGPYHIGSSVEFDWCAVSSIRTLRQLGKKTVVVNCNPETVSTDFDECDKLYFEELSLERILDIYHQEACGGCIISVGGQIPNNLAVPLYKNGVKIMGTSPLQIDRAEDRSIFSAVLDELKVAQAPWKAVNTLNEALEFAKSVDYPCLLRPSYVLSGSAMNVVFSEDEMKKFLEEATRVSQEHPVVLTKFVEGAREVEMDAVGKDGRVISHAISEHVEDAGVHSGDATLMLPTQTISQGAIEKVKDATRKIAKAFAISGPFNVQFLVKGNDVLVIECNLRASRSFPFVSKTLGVDFIDVATKVMIGENVDEKHLPTLDHPIIPADYVAIKAPMFSWPRLRDADPILRCEMASTGEVACFGEGIHTAFLKAMLSTGFKIPQKGILIGIQQSFRPRFLGVAEQLHNEGFKLFATEATSDWLNANNVPATPVAWPSQEGQNPSLSSIRKLIRDGSIDLVINLPNNNTKFVHDNYVIRRTAVDSGIPLLTNFQVTKLFAEAVQKSRKVDSKSLFHYRQYSAGKAA
